Results from PMC5607218.
These are yes or no findings as the source states them, for the method shown. A result given as binding can be weak or reduced; the word gives no strength.

Target: periplasmic extracellular loop (ECL) of FtsX (C. crescentus)
Assay: two-hybrid; bacterial two-hybrid: T18 and T25 plasmids co-transformed into E. coli BTH101; cultures spotted on plates with ampicillin, kanamycin, X-gal and 0.5 mM IPTG, 1-2 days at 30°C; blue colonies are positive; every interaction tested in triplicate

binding: binds
Substance: coiled coil (CC) domain of LdpF (LytM domain protein F, CCNA_03547) (from UniProt A0A0H3CDN2) (domain or fragment)
